Laboratory results from PubChem BioAssay AID1688 (National Center for Advancing Translational Sciences (NCATS), 2009).
In all, about 220,000 compounds went through this assay and about 2,400 (1.1%) were called active. The inconclusive results got no clear call from the source; some entries with a clear call stand among them for comparison. Calls come from the whole dose curve; as a rule, active = well fitted inhibition curve with a large enough effect; inconclusive = small, poorly fitted or top-dose-only effect, or effect the other way; inactive = no such curve, though single readings can be large or run the other way. A potency beside an inconclusive call is a rough fit, not a confirmed value.
% is set by controls: 0 for no effect and ±100 for the full control effect; potency is the fitted concentration of half-maximal effect.

Experiment: qHTS Multiplex Assay to Identify Dual Action Probes in a Cell Model of Huntington: Aggregate Formation (GFP); note: nearly all actives have a fitted effect of over 60% in size
Settings: PC12 HttQ103-GFP aggregates, Acumen cytometry, 40 h; activity change, negative = inhibition: at 46.1 µM (top of the series) unless noted
Outline: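 Aggregate formation scored by laser-scanning cytometer (488 excitation, 500–530 emission) in lysed PC12 cells expressing Q103-GFP after 100 nM tebufenozide induction; library tested in dose series, with ATPLite reagent added in the multiplex.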
In the case of `CCCn1c(N)c(C(=O)COc2ccc(Br)cc2F)c(=O)n(C)c1=O`, the Potency is reported as inconclusive: 35.5 µM [inhibitor, single point].
With `CCCn1cnc2cc(NCc3ccccn3)ccc21` the Potency was inconclusive: 11.2 µM [inhibitor, partial curve, poor fit].
In the case of `N#Cc1ccc(Oc2ccc(-c3nc4ccccc4nc3-c3ccccc3)cc2)cc1C#N`, the “activity change, negative = inhibition” value is reported as inactive: 13.8%.
With `CNc1cc([N+](=O)[O-])ccc1N/C=C/C(=O)c1cccs1` the Potency was inconclusive: 31.6 µM [activator, single point].
For `C=CCNc1nnc(SC2CC(=O)N(c3ccc(OC)cc3)C2=O)s1` (stereo not drawn), the Potency was inconclusive: 35.5 µM [inhibitor, single point].
In the case of `COc1cccc(NC(=O)CSc2nnc(-c3cc(C)n(-c4ccccc4)c3C)o2)c1`, the Potency is reported as inconclusive: 25.1 µM [inhibitor, single point].
With `CCCCC(c1nnnn1Cc1ccco1)N1CCN(c2nc3ccccc3s2)CC1` (stereo not drawn) the Potency was inconclusive: 17.8 µM [inhibitor, single point].
With `Brc1ccc2nc(N3CCN(c4ccccc4)CC3)sc2c1` the “activity change, negative = inhibition” value was inactive: 3.53%.
For `Nc1cc2sc(-c3ccc(C(=O)O)cc3)nc2cc1Cl`, the Potency was inconclusive: 35.5 µM [activator, single point].
For `FC(F)(F)c1nc(-c2cccs2)ncc1-c1nnnn1-c1ccc(Cl)cc1`, the Potency was inconclusive: 5.62 µM [inhibitor, single point].
With `COc1ccc(N(C(=O)c2cccc(OC)c2OC)C2C=CS(=O)(=O)C2)cc1` (stereo not drawn) the Potency was inconclusive: 3.55 µM [inhibitor, full curve, poor fit].
In the case of `CC(C)(C)c1ccc(-c2nc(-c3ccncc3)no2)cc1`, the Potency is reported as inconclusive: 20 µM [inhibitor, partial curve, poor fit].
For `Cc1ccc(C(=O)Nc2ccc(Cc3ccncc3)cc2)cc1[N+](=O)[O-]`, the Potency was active: 12.6 µM.
For `CC(=O)C1=C(C)NC(SCC(N)=O)=C(C#N)C1c1cccnc1` (stereo not drawn), the “activity change, negative = inhibition” value was inactive: -13.7%.
For `Cc1ccc(OCCCn2ccnc2)cc1C`, the Potency was inconclusive: 28.2 µM [inhibitor, single point].
With `COCc1[nH]nc2c1C(c1ccc(OC)c(OC)c1)C(C#N)=C(N)O2` (stereo not drawn) the “activity change, negative = inhibition” value was inactive: 0.313%.
For `O=C(NNC1=C(C(=O)C(F)(F)F)CCC1)c1ccc(Cl)cc1`, the Potency was inconclusive: 14.1 µM [inhibitor, single point].
With `CCOc1cc(/C=N/NC(N)=O)cc(Br)c1OCC(=O)Nc1cccc2ccccc12` the activity change, negative = inhibition was inactive: 3.66% [at 9.22 µM].
For `Cc1cc([N+](=O)[O-])ccc1NC(=O)Nc1ccc(F)cc1F`, the Potency was inconclusive: 14.1 µM [inhibitor, single point].
In the case of `Cc1ccc(-c2nc3ccccc3[nH]2)cc1NC(=S)NC(=O)c1ccccc1Br`, the Potency is reported as inconclusive: 35.5 µM [inhibitor, single point].
With `Cc1ccc(NC(=O)Nc2cccs2)nc1` the Potency was inconclusive: 35.5 µM [activator, single point].
In the case of `Cc1ccc(-c2c[n+](Cc3ccc(Cl)c(Cl)c3)c3n2CCC3)cc1`, the Potency is reported as inconclusive: 14.1 µM [inhibitor, single point].
In the case of `NC(=O)CN1CCN(S(=O)(=O)c2ccc(Br)cc2)CC1`, the “activity change, negative = inhibition” value is reported as inactive: -3.35%.
In the case of `CCCCn1nc(C(=O)N[C@@H](CCSC)c2nc3ccccc3[nH]2)c2ccccc2c1=O`, the Potency is reported as inconclusive: 35.5 µM [inhibitor, single point].
In the case of `Cc1cc(N2CCN(C)CC2)ccc1NC(=O)c1cccc(S(=O)(=O)N2CCc3ccccc3C2)c1`, the Potency is reported as inconclusive: 35.5 µM [inhibitor, single point].
With `COc1ccc(NC(=S)N(CCCN2CCC(C)CC2)Cc2cccs2)cc1Cl` the Potency was inconclusive: 6.31 µM [inhibitor, single point].
For `CC(C)CC(COCc1ccc(Cl)cc1)N1CCN(C(=O)c2ccc(C(F)(F)F)cc2)CCC1=O` (stereo not drawn), the Potency was inconclusive: 12.6 µM [inhibitor, single point].
With `Cc1ccc(-n2c(SCC(=O)NCc3ccco3)nc3sc4c(c3c2=O)CC(C)(C)SC4)cc1` the Potency was inconclusive: 35.5 µM [activator, single point].
In the case of `COc1cccc(/C=C2\SC(N)=NC2=O)c1OS(=O)(=O)c1ccccc1`, the “activity change, negative = inhibition” value is reported as inactive: -7.87%.
In the case of `NC(=O)c1cc(N2C(=O)C=CC2=O)ccc1Cl`, the Potency is reported as inconclusive: 25.1 µM [inhibitor, single point].
For `CC(=O)c1ccc(N2CCN(c3ncc(C(F)(F)F)cc3Cl)CC2)cc1`, the Potency was inconclusive: 12.6 µM [inhibitor, partial curve].
In the case of `CCn1cc(CNC(=O)c2cc(-c3cc(OC)ccc3OC)nc3ccccc23)c(C)n1`, the Potency is reported as inconclusive: 6.31 µM [inhibitor, single point].
With `C[C@@H](C(=O)N[C@@H](Cc1ccccc1)C(=O)O)n1nnc2ccccc2c1=O` the activity change, negative = inhibition was inactive: 4.72% [at 9.22 µM].
With `Cc1cccc(C)c1NC(=O)CSCC(=O)c1ccc(O)c(O)c1` the Potency was inconclusive: 35.5 µM [inhibitor, single point].
In the case of `COc1ccc(/C=C/C(=O)Nc2cc(F)ccc2C)cc1S(=O)(=O)N1CCOCC1`, the Potency is reported as inconclusive: 35.5 µM [activator, partial curve].
For `COC(=O)c1ccccc1NC(=S)N(Cc1ccc2c(c1)OCO2)Cc1cc2ccc(OC)cc2[nH]c1=O`, the “activity change, negative = inhibition” value was inactive: 11.1%.
In the case of `CCn1c(SCC(=O)NCc2ccccc2)nnc1-c1ccccc1O`, the Potency is reported as inconclusive: 35.5 µM [inhibitor, single point].
In the case of `O=C1c2ccccc2C(=O)N1CCCSc1nc2ccccc2o1`, the “activity change, negative = inhibition” value is reported as inactive: 5.74%.
In the case of `COc1cc(/C=N/N=C(/C(=O)c2ccccc2)c2ccccc2)cc(OC)c1O`, the Potency is reported as inconclusive: 35.5 µM [activator, single point].
In the case of `O=C(N/N=C/c1c[nH]c2ccccc12)c1cc(-c2ccc3ccccc3c2)n[nH]1`, the “activity change, negative = inhibition” value is reported as inactive: -15%.
In the case of `CCc1cccc2c(C(=S)N3CCCC3)c[nH]c12`, the activity change, negative = inhibition is reported as inactive: -1.97% [at 9.22 µM].
In the case of `CCn1c2ccccc2c2nc3cc(S(=O)(=O)N4CCOCC4)ccc3nc21`, the “activity change, negative = inhibition” value is reported as inactive: -25%.
In the case of `Cc1cc(C)c2[nH]c(=O)c(CN(Cc3ccco3)C(=O)c3cccs3)cc2c1`, the Potency is reported as inconclusive: 3.55 µM [inhibitor, single point].
In the case of `O=C(Nc1ncccc1O)c1cccc(S(=O)(=O)N2CCc3ccccc32)c1`, the “activity change, negative = inhibition” value is reported as inactive: -14.3%.
With `O=C(N/N=C/c1cccs1)c1cc(C2CC2)nc2ccccc12` the “activity change, negative = inhibition” value was inactive: -26.9%.
For `Cc1ccc(NC(=O)COc2ccccc2C(=O)Nc2ccccc2)cc1Cl`, the Potency was inconclusive: 3.98 µM [activator, single point].
With `CCC(C)N(CC(=O)Nc1cccc(C)c1C)C(=O)CCl` (stereo not drawn) the Potency was inconclusive: 22.4 µM [inhibitor, single point].
For `CCc1nnc(NC(=O)CSc2nnc(-c3cccnc3)n2CC)s1`, the Potency was inconclusive: 3.16 µM [activator, partial curve].
With `CC(=O)c1cccc(NC(=S)NC(=O)c2ccccc2C)c1` the Potency was inconclusive: 4.47 µM [inhibitor, single point].
In the case of `C=C(C)COc1ccc(-c2n[nH]c(C)c2-c2ccc(OC)cc2)c(O)c1`, the Potency is reported as inconclusive: 35.5 µM [inhibitor, single point].
With `CCOc1cc(/C=N/N=C(\N)c2nonc2N)cc(Br)c1OCc1cccc2ccccc12` the Potency was inconclusive: 11.2 µM [inhibitor, single point].
In the case of `COc1ccc(CCNC2CC(C)N(C)CC2C)cc1OC` (stereo not drawn), the Potency is reported as inconclusive: 0.631 µM [activator, single point].
With `CCc1ccc(NC(=O)CSc2nc3n[nH]c(C)c3c(=N)n2-c2cccc(OC)c2)cc1` the “activity change, negative = inhibition” value was inactive: -16.7%.
For `CCCCN(C(=O)CNC(=O)c1ccco1)C(C(=O)NC1CCCC1)c1ccc(OC)cc1` (stereo not drawn), the Potency was inconclusive: 14.1 µM [activator, single point].
In the case of `CCCCOC1CC(c2ccc(OCc3ccc(OC)cc3)c(OC)c2)N(C)O1` (stereo not drawn), the Potency is reported as inconclusive: 22.4 µM [inhibitor, single point].
In the case of `COc1ccc(CCNc2ccncn2)cc1`, the Potency is reported as inconclusive: 35.5 µM [inhibitor, single point].
In the case of `Cc1ccc(S(=O)(=O)Nc2ccccc2/C=N/c2nc3ccccc3n2C(C)C)cc1`, the Potency is reported as inconclusive: 11.2 µM [inhibitor, partial curve].
For `COc1cc(OC)c(OC)cc1/C=N/N(C)c1ccccc1`, the activity change, negative = inhibition was inactive: 5.54% [at 9.22 µM].
For `COc1ccc(OC)c2c1C(=O)C(Cl)=C(Cl)C2=O`, the Potency was inconclusive: 3.55 µM [inhibitor, single point].
In the case of `O=c1c(Cl)c(Cl)cnn1Cc1nnc(-c2ccc(Cl)cc2)o1`, the Potency is reported as inconclusive: 35.5 µM [inhibitor, single point].
In the case of `COc1cccc(C(=O)N/N=C/C(Br)=C/c2ccccc2)c1`, the Potency is reported as inconclusive: 11.2 µM [inhibitor, single point].
In the case of `CCN(CC)Cc1c(O)ccc2c([N+](=O)[O-])c(C)n(-c3ccc(OC)cc3)c12`, the Potency is reported as active: 5.01 µM.
In the case of `O=C(O)c1cc(S(=O)(=O)NCc2ccco2)c(Cl)cc1Cl`, the “activity change, negative = inhibition” value is reported as inactive: 5.08%.
For `CCSC1(SCC)N=C(N)C2(C#N)C(c3ccc(OC)c(OC)c3OC)C12C#N` (stereo not drawn), the Potency was inconclusive: 22.4 µM [inhibitor, single point].
For `Cc1ccccc1OCC(=O)Nc1ccc(N2CCN(C(=O)C(C)C)CC2)c(Cl)c1`, the Potency was inconclusive: 22.4 µM [inhibitor, single point].
With `CCC(=O)N(C1=C(NC)C(=O)c2ccccc2C1=O)C(C)C` the Potency was active: 28.2 µM.
With `CC(=C/c1ccccc1)/C=N/n1c(-c2ccncc2)n[nH]c1=S` the Potency was active: 2 µM.
In the case of `CCOc1ccc(C(=O)OCC(=O)Nc2ccc(SC(F)F)cc2)cc1OCC`, the Potency is reported as inconclusive: 6.31 µM [inhibitor, partial curve].
